Data source: PubChem BioAssay AID1259405 (NCATS, 2018)
The whole screen tested about 50,000 reagents; this is a random part of them. About 4,000 of all reagents (8%) count as active. 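Mouse siRNA library applied to hamster cells; one well for each siRNA.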 The numbers tell different reagents against one gene apart.

Test: 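Knock-downs that lift recombinant protein yield in hamster ovary cells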 (primary screen)
System: Chinese hamster CHO-K1 ovary cells with stable secreted eGFP expression
Reagent: single siRNA against mouse genes, 0.8 pmol siRNA per well (2 µl of 400 nM stock)
Time to read-out: 3 days
Measurement: 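Per-well intracellular GFP measured by laser scanning cytometry, plus viability from ATP luminescence, each relative to plate median of non-targeting control wells, in %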
Direction: GFP, % of control: higher = more GFP per well, higher productivity; viability (ATP), % of control: higher = more viable cells (more ATP)
Call rule: 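Called active when intracellular GFP, relative to negative control, is at or above 120%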

Pogk #1 scored GFP, % of control 79.5; viability (ATP), % of control 125; inactive.
With knock-down of Pogk #2, the screen gave GFP, % of control 87.7; viability (ATP), % of control 67.6; inactive.
For Odf2 #1, the entry reads GFP, % of control 39.9; viability (ATP), % of control 41; inactive.
For Odf2 #2, the values are GFP, % of control 115; viability (ATP), % of control 79.4; inactive.
After knock-down of Odf2 #3, the screen gave GFP, % of control 61.1; viability (ATP), % of control 72.2; inactive.
With knock-down of Hunk the results were GFP, % of control 64.3; viability (ATP), % of control 72.7; inactive.
Uqcr10 #1 scored GFP, % of control 81.9; viability (ATP), % of control 112; inactive.
With knock-down of Uqcr10 #2, the screen gave GFP, % of control 88.6; viability (ATP), % of control 73.9; inactive.
Uqcr10 #3 scored GFP, % of control 40.7; viability (ATP), % of control 36.4; inactive.
Rab5if #1 gave GFP, % of control 64.2; viability (ATP), % of control 84.4; inactive.
Rab5if #2 scored GFP, % of control 42.8; viability (ATP), % of control 54.6; inactive.
After knock-down of Rab5if #3, the screen gave GFP, % of control 36.4; viability (ATP), % of control 46.5; inactive.
Depletion of Slc39a6 #1 resulted in: GFP, % of control 95.5; viability (ATP), % of control 98.3; inactive.
After knock-down of Slc39a6 #2, the record shows GFP, % of control 44.8; viability (ATP), % of control 34.7; inactive.
Silencing of Slc39a6 #3 came out at: GFP, % of control 98; viability (ATP), % of control 84.9; inactive.
Arl6 #1 gave GFP, % of control 116; viability (ATP), % of control 70.3; inactive.
With knock-down of Arl6 #2 the results were GFP, % of control 126; viability (ATP), % of control 71.7; active.
Against Arl6 #3, the values are GFP, % of control 80.8; viability (ATP), % of control 72.4; inactive.
Against Msantd1 #1 the deposit lists GFP, % of control 36.9; viability (ATP), % of control 69.7; inactive.
Depletion of Msantd1 #2 resulted in: GFP, % of control 50.8; viability (ATP), % of control 80.6; inactive.
Silencing of Msantd1 #3 gave: GFP, % of control 86.8; viability (ATP), % of control 70.7; inactive.

Hits, of those listed so far:
Arl6 #2 | GFP, % of control: 126; viability (ATP), % of control: 71.7; call: active

Next results follow.
Against Uqcrc2 #1, the values are GFP, % of control 67.4; viability (ATP), % of control 77.2; inactive.
Silencing of Uqcrc2 #2 gave: GFP, % of control 56.8; viability (ATP), % of control 46.7; inactive.
Against Uqcrc2 #3, the values are GFP, % of control 55.9; viability (ATP), % of control 40.9; inactive.
Depletion of Fbxo38 #1 resulted in: GFP, % of control 60.8; viability (ATP), % of control 77; inactive.
With knock-down of Fbxo38 #2, the screen gave GFP, % of control 105; viability (ATP), % of control 94.6; inactive.
For Fbxo38 #3, the values are GFP, % of control 104; viability (ATP), % of control 66.7; inactive.
Against Ankrd24 #1 the deposit lists GFP, % of control 61.5; viability (ATP), % of control 79; inactive.
Silencing of Ankrd24 #2 came out at: GFP, % of control 44.8; viability (ATP), % of control 46.1; inactive.
For Ankrd24 #3, the values are GFP, % of control 84.4; viability (ATP), % of control 86.2; inactive.
For Rab5b #1, the values are GFP, % of control 88.1; viability (ATP), % of control 88.8; inactive.
Depletion of Rab5b #2 came out at: GFP, % of control 175; viability (ATP), % of control 68.5; active.
Against Rab5b #3 the deposit lists GFP, % of control 77.8; viability (ATP), % of control 77; inactive.
After knock-down of Spata32 #1 the results were GFP, % of control 93.3; viability (ATP), % of control 85.9; inactive.
Knock-down of Spata32 #2 gave: GFP, % of control 91.8; viability (ATP), % of control 101; inactive.
Depletion of Spata32 #3 came out at: GFP, % of control 114; viability (ATP), % of control 99.5; inactive.
Grid2ip #1 scored GFP, % of control 55.1; viability (ATP), % of control 70.7; inactive.
Depletion of Grid2ip #2 resulted in: GFP, % of control 135; viability (ATP), % of control 103; active.
Silencing of Shmt2 #1 came out at: GFP, % of control 128; viability (ATP), % of control 86.8; active.
After knock-down of Shmt2 #2 the results were GFP, % of control 165; viability (ATP), % of control 144; active.
With knock-down of Shmt2 #3, the record shows GFP, % of control 111; viability (ATP), % of control 98.8; inactive.
Against Shmt2 #4, the values are GFP, % of control 113; viability (ATP), % of control 108; inactive.
Shmt2 #5 gave GFP, % of control 97.6; viability (ATP), % of control 83.7; inactive.
Silencing of Shmt2 #6 gave: GFP, % of control 80.4; viability (ATP), % of control 93; inactive.
Silencing of Il18rap #1 resulted in: GFP, % of control 66.9; viability (ATP), % of control 97.1; inactive.
Il18rap #2 showed GFP, % of control 106; viability (ATP), % of control 75.9; inactive.
With knock-down of Il18rap #3, the record shows GFP, % of control 50.4; viability (ATP), % of control 65.4; inactive.
Rmnd5a #1 showed GFP, % of control 99.8; viability (ATP), % of control 86.2; inactive.
After knock-down of Rmnd5a #2, the screen gave GFP, % of control 63.6; viability (ATP), % of control 54; inactive.
Rmnd5a #3 scored GFP, % of control 124; viability (ATP), % of control 75.2; active.
Against Gm10643 #1, the entry reads GFP, % of control 88; viability (ATP), % of control 98.4; inactive.
Against Gm10643 #2, the entry reads GFP, % of control 99.3; viability (ATP), % of control 97.2; inactive.
Knock-down of Gm10643 #3 came out at: GFP, % of control 87.6; viability (ATP), % of control 79.4; inactive.
